Test results: PubChem BioAssay AID2035 (National Center for Advancing Translational Sciences (NCATS), 2009)
Inconclusive results, whose numbers are uncertain, are shown with a selection of clear calls. A potency beside an inconclusive call is a rough fit, not a confirmed value. The source made the active and inactive calls. Calls follow the shape of the dose curve; as a rule, active = well fitted inhibition curve with a large enough effect; inconclusive = small, poorly fitted or top-dose-only effect; inactive = flat fitted curve, though single readings scatter.

Assay: Confirmatory Assay for Inhibitors of Human Galactokinase (GALK): Phenol-HRP redox assay counterscreen
Conditions: Phenol red-HRP H2O2 redox cycling, absorbance 600 nm; series mostly up to 115 µM
From the text: NIH Molecular Libraries Probe Production Centers Network [MLPCN] NIH Chemical Genomics Center [NCGC] MLPCN Grant: R03 MH085689-01 Assay Submitter (PI): Kent Lai (University of Utah School of Medicine, 50 N Mario Capecchi Drive, Salt Lake City, UT 84132) NCGC Assay Overview: One mM dithiothreitol (DTT) was used as a reducing agent to maintain the galactokinase (GALK) enzyme in its active form in the GALK qHTS screen (AID: 1868). However, it has been shown that in the presence of DTT a number of compounds also undergo redox recyling, generating a significant amount of H2O2 that can oxidize crucial cysteine residues in the enzyme, leading to and a false-positive result. To evaluate and flag redox recycling compounds for compounds re-acquired from the qHTS screen, an endpoint colorimetric assay developed by Johnston et al. was adopted and optimized for a 1536-well plate format. In brief, the assay detects the presence of H2O2 by following the change in absorbance at 600 nm due to oxidation of phenol red (Sigma, cat# 114537) catalyzed by horseradish peroxidase (HRP; Invitrogen). A stop reagent, 1N NaOH was added prior to reading the absorbance. DMSO and different concentrations of hydrogen peroxide (Sigma, cat# 216763) in the GALK buffer were used as negative and positive controls respectively.
NCGC Assay Protocol Summary: Two uL/well of GALK buffer (20mM HEPES pH8.0, 5 mM MgCl2, 60 mM NaCl, 1 mM DTT, 0.01% BSA final concentration) was dispensed into a 1536-well assay plates (Greiner, black clear bottom plates) with Aurora Discovery BioRAPTR Flying Reagent Dispenser (FRD; Beckton-Dickenson). Compound and control solutions (23 nL each) were transferred to the assay plate in their respective wells using Kalypsys pin tool equipped with a 1536-pin tool head and incubated at room temperature for 30 min. Presence of H2O2 produced by redox cycling compounds was detected by adding 2 uL/well phenol red - HRP detection reagent ([…] phenol red in 1x Hanks Balanced Salt Solution, 25 U/mL HRP final concentrations). After 15 min of room temperature incubation, the reaction was stopped by adding 2 uL/well 1N NaOH and incubated for an additional 1 hr at room temperature. The absorbance at 600 nm was measured using the ViewLux plate reader (Perkin Elmer, Waltham, MA) with 6000 light energy, 2 sec exposure, and 2x binning instrument settings.

Row | Compound | Potency
1 | CS(=O)(=O)c1ccc2c(c1)sc1nc(=O)c(/C=C3/C=CC(=O)C(O)=C3)c(N)n12 | inconclusive: 3.75 µM [falling, full curve, poor fit]
2 | COc1ccc2cc(C(N)=O)c(=Nc3ccc(C)cc3)oc2c1 | inactive
3 | CCS(=O)(=O)C1=NN2C(=N)/C(=C\c3ccc(OC(=O)c4ccco4)c(Br)c3)C(=O)N=C2S1 | inactive
4 | O=C1/C(=C\c2ccc(O)c(O)c2)C(c2ccccc2)=NN1c1ccccc1 | inconclusive: 13.3 µM [falling, partial curve]
5 | O=C1Nc2ccc([N+](=O)[O-])cc2C1=Nc1cccc(CO)c1 | inconclusive: 84.1 µM [falling, single point]
